The target in the experiment is Myc-tagged human DTX1 (human Deltex) (human) (UniProt Q86Y01). In words: co-immunoprecipitation from co-transfected COS7 cells: IP with anti-flag antibody, western blot. (Immunoblotting shows a protein as a band on a membrane.)

Protein sequences, listed by entry. Tags and fused reporters are not part of them.
UniProt Q86Y01: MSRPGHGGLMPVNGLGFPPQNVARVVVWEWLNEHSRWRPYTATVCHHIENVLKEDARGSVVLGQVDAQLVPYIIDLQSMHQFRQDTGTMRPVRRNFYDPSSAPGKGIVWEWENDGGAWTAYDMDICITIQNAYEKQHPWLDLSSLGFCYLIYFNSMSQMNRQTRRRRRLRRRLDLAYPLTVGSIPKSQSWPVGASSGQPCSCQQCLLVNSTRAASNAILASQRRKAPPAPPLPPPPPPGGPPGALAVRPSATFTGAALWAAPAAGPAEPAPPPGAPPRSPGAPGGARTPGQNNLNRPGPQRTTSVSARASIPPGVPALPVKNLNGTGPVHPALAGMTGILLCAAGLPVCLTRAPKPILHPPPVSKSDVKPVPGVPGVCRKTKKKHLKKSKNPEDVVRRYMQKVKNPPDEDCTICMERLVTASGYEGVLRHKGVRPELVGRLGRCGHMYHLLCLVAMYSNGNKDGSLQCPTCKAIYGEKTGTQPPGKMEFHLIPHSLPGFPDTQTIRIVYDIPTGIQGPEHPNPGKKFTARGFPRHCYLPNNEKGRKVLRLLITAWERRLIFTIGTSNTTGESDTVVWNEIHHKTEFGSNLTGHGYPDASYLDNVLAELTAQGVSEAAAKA

Results are given in words; binding and its absence hold for the method and conditions named. In cells and extracts the contact can be indirect. Some entries that bind do so weakly or less than the wild type.

Take “FLAG-tagged BBAP (from UniProt Q8TDB6 1-739)”: the binding entry was “binds”.

(Values after patent US20020120112A1.)
